For one molecule, binding results are on record in PMC8980813.

Results are given in words; binding and its absence hold for the method and conditions named. In cells and extracts the contact can be indirect.

The target in the test is T1, Strep-METTL6 (human) (UniProt Q8TCB7).
T1 sequence: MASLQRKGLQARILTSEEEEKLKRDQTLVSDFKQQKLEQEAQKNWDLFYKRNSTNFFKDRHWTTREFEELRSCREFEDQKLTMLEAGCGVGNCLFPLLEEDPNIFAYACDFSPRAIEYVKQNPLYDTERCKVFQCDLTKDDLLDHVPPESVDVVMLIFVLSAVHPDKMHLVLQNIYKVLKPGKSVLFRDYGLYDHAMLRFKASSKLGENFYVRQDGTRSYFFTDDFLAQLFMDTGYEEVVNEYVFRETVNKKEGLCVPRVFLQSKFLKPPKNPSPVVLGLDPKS
Description: pull-down.

B1: endogenous mitochondrial seryl-tRNA synthetase (SARS2) (enzyme, UniProt Q9NP81 35-518)
chain: TTEKRNRNLLYEYAREGYSALPQLDIERFCACPEEAAHALELRKGELRSADLPAIISTWQELRQLQEQIRSLEEEKAAVTEAVRALLANQDSGEVQQDPKYQGLRARGREIRKELVHLYPREAQLEEQFYLQALKLPNQTHPDVPVGDESQARVLHMVGDKPVFSFQPRGHLEIGEKLDIIRQKRLSHVSGHRSYYLRGAGALLQHGLVNFTFNKLLRRGFTPMTVPDLLRGAVFEGCGMTPNANPSQIYNIDPARFKDLNLAGTAEVGLAGYFMDHTVAFRDLPVRMVCSSTCYRAETNTGQEPRGLYRVHHFTKVEMFGVTGPGLEQSSQLLEEFLSLQMEILTELGLHFRVLDMPTQELGLPAYRKFDIEAWMPGRGRFGEVTSASNCTDFQSRRLHIMFQTEAGELQFAHTVNATACAVPRLLIALLESNQQKDGSVLVPPALQSYLGTDRITAPTHVPLQYIGPNQPRKPGLPGQPAVS
Turning to B1, the binding result was “no binding”.
